## Microarray screen: hit calls

Targets, with sequences 5′ to 3′:
TPP: TPP riboswitch RNA three-way junction, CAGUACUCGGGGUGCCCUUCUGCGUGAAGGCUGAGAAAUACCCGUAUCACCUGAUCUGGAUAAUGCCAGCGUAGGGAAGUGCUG. Hit rate about 0.7% of about 24,000 compounds.
SAM-II: SAM-II riboswitch RNA pseudoknot, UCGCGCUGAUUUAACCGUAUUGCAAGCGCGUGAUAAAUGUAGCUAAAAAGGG. Hit rate about 1% of about 21,000 compounds.
PreQ1: PreQ1 riboswitch RNA pseudoknot, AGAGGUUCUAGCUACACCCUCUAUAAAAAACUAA. From B. subtilis. Hit rate about 0.7% of about 24,000 compounds.

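The test is a small-molecule microarray: each compound is printed twice on a reactive slide, and binding shows as fluorescence of the labelled oligonucleotide after washing. The data file lists only calls. An earlier report of the laboratory on the PreQ1, TPP and SAM-II riboswitches (doi:10.1038/s41467-019-09493-3) used 1 µM RNA for 2 h and required a mean Z-score above 3 (spot signal-to-noise against the whole library), a score well above that on a control array, and duplicate spots agreeing (coefficient of variation under 100); it then also set aside compounds that hit other targets, which this list keeps. The cut-offs behind this list may differ. A missing hit is not proof of no binding, and a hit is not a measured affinity.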
“active” means called a hit, “inactive” means screened and not called a hit.
The compounds are a random part of those screened.
A target missing from an entry has no call listed here.

* Cn1ccnc1C(O)C1CCN(Cc2cc3n(n2)CCCNC3)CC1 (configuration not stated) | TPP: inactive; SAM-II: inactive; PreQ1: inactive
* O=C(Nc1ccccc1)c1cccc(S(=O)(=O)N2CCOCC(O)C2)c1 (configuration not stated) | TPP: inactive; SAM-II: inactive; PreQ1: inactive
* CC(C)SCCNC(C)C(=O)NC1CCCC1 (configuration not stated) | TPP: inactive; SAM-II: inactive; PreQ1: inactive
* Cc1ccc(-n2cnc(N)c2C(=O)c2ccc(Br)cc2)cc1 | TPP: inactive; SAM-II: inactive; PreQ1: inactive
* CC1CC(Nc2ccccc2)c2ccccc2N1C(=O)c1cccc(Cl)c1 (configuration not stated) | TPP: inactive; SAM-II: inactive; PreQ1: inactive
* CCN(CCO)C[C@@H]1CN(C(=O)Cc2csc(C)n2)C[C@@H]1CO | TPP: inactive; SAM-II: inactive; PreQ1: inactive
* C[C@]12CC[C@H](O)CC1=CCC1C2CC[C@]2(C)C(n3cnc4ccccc43)=CCC12 (some centres not stated) | TPP: inactive; SAM-II: inactive; PreQ1: inactive
* CN(C)CCCn1c2c3ccccc3ccc2c2oc(=O)c3ccccc3c21.Cl | TPP: inactive; SAM-II: inactive; PreQ1: inactive
* Cc1cc(C)c2c(N)c(C(=O)c3ccc(F)cc3)oc2n1 | TPP: inactive; SAM-II: inactive; PreQ1: inactive
* CC(=O)NS(=O)(=O)c1ccc2sc(C)nc2c1 | TPP: inactive; SAM-II: inactive; PreQ1: active
* Cc1cc(NCc2ccco2)c2nncn2n1 | TPP: inactive; SAM-II: inactive; PreQ1: inactive
* OC(CNCCc1ccccc1)c1ccccc1 (configuration not stated) | TPP: inactive; SAM-II: inactive; PreQ1: inactive
* Cc1ccc(NCc2ccc(C(=O)NCCCCN3CCCC3)cc2)cc1 | TPP: inactive; SAM-II: inactive; PreQ1: inactive
* Cn1c2c(sc1=O)CCC2 | TPP: inactive; SAM-II: inactive; PreQ1: inactive
* Cc1ccc(CNc2cc(-c3ccccc3)nc3nncn23)cc1 | TPP: inactive; PreQ1: inactive
* Nc1c(Br)cc(Cl)c2c1C(=O)c1ccccc1C2=O | TPP: inactive; SAM-II: inactive; PreQ1: inactive
* CCc1ccc([C@@H]2C[C@H](c3ccc(OC)cc3)n3nc(N)nc3N2)cc1 | TPP: inactive; SAM-II: inactive; PreQ1: inactive
* CCn1c(C2CCNCC2)nn(CCn2cncn2)c1=O | TPP: inactive; SAM-II: inactive; PreQ1: inactive
* CCC(=O)O[C@]1(C(=O)CO)CC[C@H]2[C@@H]3CCC4=CC(=O)CC[C@]4(C)[C@@H]3CC[C@@]21C | TPP: inactive; SAM-II: inactive; PreQ1: inactive
* C=C(C)COc1cccc(CNC(C)Cc2cc(C)n[nH]2)c1 (configuration not stated) | TPP: inactive; SAM-II: inactive; PreQ1: inactive
* O=C(NCCCNc1cccnc1)C1COc2ccccc2C1 (configuration not stated) | TPP: inactive; SAM-II: inactive; PreQ1: inactive
* Cn1cnnc1-c1cccc(N)c1 | TPP: inactive; SAM-II: inactive; PreQ1: inactive
* O=C(O)CCCCCC(=O)NN=C1CCCC1 | TPP: inactive; SAM-II: inactive; PreQ1: inactive
* CCC(O)c1nc2ccccc2n1CC(=O)N(c1ccccc1)C(C)C (configuration not stated) | TPP: inactive; PreQ1: inactive
* CC=CCc1nnc(C(=O)N2CCC(O)(CO)C2)o1 (configuration not stated) | TPP: inactive; SAM-II: inactive; PreQ1: inactive
* c1cnc(N2CCC(NCC(c3cccnc3)N3CCOCC3)CC2)nc1 (configuration not stated) | TPP: inactive; SAM-II: inactive; PreQ1: inactive
* O=C(O)c1cc(Cl)nnc1O | TPP: inactive; SAM-II: inactive; PreQ1: inactive
* COc1ccc(CNCc2cccc(Oc3ccccc3)c2)cc1 | TPP: inactive; SAM-II: inactive; PreQ1: inactive
* COc1ccc(CNCc2ccc(-c3ccc(OC)c(Cl)c3)o2)cc1 | TPP: inactive; PreQ1: inactive
* Cc1cccc2c1c1ccc3c(c1n2C)C(=O)C=CC3=O | TPP: inactive; SAM-II: inactive; PreQ1: inactive
* Cc1nc2ccc(Cl)cn2c1C(=O)N1CC2(CCNCC2)CC1C(=O)O (configuration not stated) | TPP: inactive; SAM-II: inactive; PreQ1: inactive
* Cc1ccc(C)c(Nc2nc(-c3ccncc3)nc3ccccc23)c1 | TPP: inactive; SAM-II: inactive; PreQ1: inactive
* Cc1c[nH]c(C(=O)N2CCC(Cc3ccc(CO)cc3)C2)n1 (configuration not stated) | TPP: inactive; SAM-II: inactive; PreQ1: inactive
* N#CC1=C(N)Oc2[nH]nc(-c3ccc(F)cc3)c2C1c1ccncc1 (configuration not stated) | TPP: inactive; SAM-II: inactive; PreQ1: inactive
* CC(=O)c1sc2nc3c(cc2c1N)CCC3 | TPP: inactive; SAM-II: inactive; PreQ1: inactive
* COc1ccc(-c2noc(-c3cccnc3NCCc3ccccc3)n2)cc1 | TPP: inactive; PreQ1: inactive
* CSc1nc(=O)c(Nc2cccc(Cl)c2)c(O)[nH]1 | TPP: inactive; SAM-II: inactive; PreQ1: inactive
* O=c1nc(CNc2ccccc2)[nH]n1Cc1ccccc1Cl | TPP: inactive; SAM-II: inactive; PreQ1: inactive
* Cc1cc(C)n(-c2ccc(C(=O)N3C[C@H](O)[C@@H](N4CCOCC4)C3)cc2)n1 | TPP: inactive; SAM-II: inactive; PreQ1: inactive
* COc1ccc(C(O)Cn2c(=N)n(C)c3ccccc32)cc1 (configuration not stated) | TPP: inactive; SAM-II: inactive; PreQ1: inactive
* CCNC(=O)[C@@H]1C[C@H](N)CN1C(=O)Cc1ccc2c(c1)NC(=O)CO2 | TPP: inactive; SAM-II: inactive; PreQ1: inactive
* CC(C)COc1nc2c(c(=O)n(C)c(=O)n2C)n1C | TPP: inactive; SAM-II: inactive; PreQ1: inactive

The first 3 entries again:

{"structure": "Cn1ccnc1C(O)C1CCN(Cc2cc3n(n2)CCCNC3)CC1", "stereo": "configuration not stated", "TPP": "inactive", "SAM-II": "inactive", "PreQ1": "inactive"}
{"structure": "O=C(Nc1ccccc1)c1cccc(S(=O)(=O)N2CCOCC(O)C2)c1", "stereo": "configuration not stated", "TPP": "inactive", "SAM-II": "inactive", "PreQ1": "inactive"}
{"structure": "CC(C)SCCNC(C)C(=O)NC1CCCC1", "stereo": "configuration not stated", "TPP": "inactive", "SAM-II": "inactive", "PreQ1": "inactive"}

Calls as published in the ROBIN set (doi:10.1002/anie.202211358).